According to publication PMC13334769:
Results are given in words; binding and its absence hold for the method and conditions named. In cells and extracts the contact can be indirect. Some results given as binding are weak or reduced against the parent protein; the word gives no strength.

The chains behind the UniProt entries cited, without tags or fusion partners. Where a name states a change or a piece, a line headed by the entry shows the natural chain unless it says otherwise.
UniProt Q9GZV5: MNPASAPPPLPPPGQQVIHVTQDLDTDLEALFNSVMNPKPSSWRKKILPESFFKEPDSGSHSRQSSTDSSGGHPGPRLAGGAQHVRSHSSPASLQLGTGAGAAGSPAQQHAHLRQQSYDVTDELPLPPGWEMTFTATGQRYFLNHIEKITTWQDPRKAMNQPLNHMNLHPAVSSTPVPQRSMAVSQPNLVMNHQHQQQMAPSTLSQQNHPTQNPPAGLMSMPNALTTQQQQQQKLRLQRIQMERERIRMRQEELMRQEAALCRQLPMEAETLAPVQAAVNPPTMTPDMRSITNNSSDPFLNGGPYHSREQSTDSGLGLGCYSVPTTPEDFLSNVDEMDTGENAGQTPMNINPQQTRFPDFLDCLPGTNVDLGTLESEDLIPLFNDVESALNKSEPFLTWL
UniProt P05412: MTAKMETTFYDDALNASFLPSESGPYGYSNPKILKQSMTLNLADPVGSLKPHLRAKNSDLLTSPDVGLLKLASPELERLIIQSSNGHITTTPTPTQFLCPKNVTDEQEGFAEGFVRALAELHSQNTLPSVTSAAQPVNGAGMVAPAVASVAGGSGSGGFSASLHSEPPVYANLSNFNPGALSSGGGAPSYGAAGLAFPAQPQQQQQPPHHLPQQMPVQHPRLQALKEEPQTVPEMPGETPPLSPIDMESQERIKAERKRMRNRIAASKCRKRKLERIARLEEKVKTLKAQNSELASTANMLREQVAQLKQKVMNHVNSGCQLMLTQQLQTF
UniProt Q15562: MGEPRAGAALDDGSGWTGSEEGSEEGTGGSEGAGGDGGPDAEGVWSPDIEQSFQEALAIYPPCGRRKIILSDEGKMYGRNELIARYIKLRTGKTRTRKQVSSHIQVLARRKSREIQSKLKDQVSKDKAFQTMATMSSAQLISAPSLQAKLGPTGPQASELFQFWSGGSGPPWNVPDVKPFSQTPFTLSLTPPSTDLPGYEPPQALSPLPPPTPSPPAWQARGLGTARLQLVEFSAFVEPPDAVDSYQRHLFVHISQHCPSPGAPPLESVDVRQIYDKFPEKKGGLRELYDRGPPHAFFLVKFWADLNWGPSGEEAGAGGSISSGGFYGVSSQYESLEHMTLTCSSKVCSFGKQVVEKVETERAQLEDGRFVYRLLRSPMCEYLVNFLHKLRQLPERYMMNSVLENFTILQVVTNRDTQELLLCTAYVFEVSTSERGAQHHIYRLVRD

How the values were obtained:
[1] = molecular target: transcriptional co-activator with PDZ-binding motif (TAZ) (human (endogenous in AGS and GA0518)) (UniProt Q9GZV5); assay: co-IP; endogenous proteins in GA0518 cell lysates, control against YAP1 knockout (LentiCRISPR/Cas9) or YAP1 ASO treatment; precipitating antibody not stated for this experiment
[2] = molecular target: transcriptional co-activator with PDZ-binding motif (TAZ) (human (endogenous in AGS and GA0518)) (UniProt Q9GZV5); assay: co-IP; endogenous proteins in AGS and GA0518 cell lysates; precipitated with an anti-TAZ antibody overnight at 4°C, Protein A/G magnetic beads, Western blot
[3] = molecular target: Yes-associated protein 1 (YAP1) (human (endogenous in AGS and GA0518)), P46937; assay: co-IP; endogenous proteins in AGS and GA0518 cell lysates; precipitated with an anti-YAP1 antibody overnight at 4°C, Protein A/G magnetic beads, Western blot; conditions: remark: other sources report otherwise

Molecule	binding [2]	further results
AP-1 heterodimer (c-JUN and FOSB) (from UniProt P05412 1-331; P53539 1-338) (complex)	–	binding [1]: binds
TEA domain transcription factor 3 (TEAD3), Q99594 1-435 (protein) MASNSWNASSSPGEAREDGPEGLDKGLDNDAEGVWSPDIEQSFQEALAIYPPCGRRKIILSDEGKMYGRNELIARYIKLRTGKTRTRKQVSSHIQVLARKKVREYQVGIKAMNLDQVSKDKALQSMASMSSAQIVSASVLQNKFSPPSPLPQAVFSTSSRFWSSPPLLGQQPGPSQDIKPFAQPAYPIQPPLPPTLSSYEPLAPLPSAAASVPVWQDRTIASSRLRLLEYSAFMEVQRDPDTYSKHLFVHIGQTNPAFSDPPLEAVDVRQIYDKFPEKKGGLKELYEKGPPNAFFLVKFWADLNSTIQEGPGAFYGVSSQYSSADSMTISVSTKVCSFGKQVVEKVETEYARLENGRFVYRIHRSPMCEYMINFIHKLKHLPEKYMMNSVLENFTILQVVTSRDSQETLLVIAFVFEVSTSEHGAQHHVYKLVKD	–	binding [3]: binds

Continued, in another order:

binding [2]	Molecule	further results
binds	TEA domain transcription factor 2 (TEAD2) (from UniProt Q15562 1-447)	–
binds	Yes-associated protein 1 (YAP1) (from UniProt P46937 1-504) (other; other documents disagree on this pair)	–
